Measured values: paper PMC7556866
Results are given in words; binding and its absence hold for the method and conditions named. Some binding calls cover weakened binding; strength is not graded here.

Target: T1, Full-length human GIRK1 (human) (UniProt P48549)
T1 sequence: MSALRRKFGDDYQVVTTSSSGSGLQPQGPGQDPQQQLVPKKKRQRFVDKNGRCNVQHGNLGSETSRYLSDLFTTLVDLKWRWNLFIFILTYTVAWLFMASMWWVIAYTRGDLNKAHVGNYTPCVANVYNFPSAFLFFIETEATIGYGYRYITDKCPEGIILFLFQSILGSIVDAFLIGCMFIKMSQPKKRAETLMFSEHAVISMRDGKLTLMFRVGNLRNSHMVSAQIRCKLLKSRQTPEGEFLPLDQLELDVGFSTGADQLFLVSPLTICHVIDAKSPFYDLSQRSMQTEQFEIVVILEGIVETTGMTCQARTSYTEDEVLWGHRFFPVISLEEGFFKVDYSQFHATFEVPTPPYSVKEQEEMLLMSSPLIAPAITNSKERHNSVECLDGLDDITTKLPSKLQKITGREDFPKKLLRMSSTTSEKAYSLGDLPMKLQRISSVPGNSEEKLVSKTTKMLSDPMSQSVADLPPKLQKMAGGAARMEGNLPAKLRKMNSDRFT
Test: cryo-EM structure; single particle analysis of GIRK1/4 co-expressed and co-purified by tandem affinity (Talon, then 1D4 resin), DDM/CHS, 0.5 mM C8-PIP2, C2 symmetry; extended (7.9 Å) and docked (4.6 Å) maps; both purified

B1: Full-length human GIRK4 (protein, UniProt P48544 1-419)
chain: MAGDSRNAMNQDMEIGVTPWDPKKIPKQARDYVPIATDRTRLLAEGKKPRQRYMEKSGKCNVHHGNVQETYRYLSDLFTTLVDLKWRFNLLVFTMVYTVTWLFFGFIWWLIAYIRGDLDHVGDQEWIPCVENLSGFVSAFLFSIETETTIGYGFRVITEKCPEGIILLLVQAILGSIVNAFMVGCMFVKISQPKKRAETLMFSNNAVISMRDEKLCLMFRVGDLRNSHIVEASIRAKLIKSRQTKEGEFIPLNQTDINVGFDTGDDRLFLVSPLIISHEINQKSPFWEMSQAQLHQEEFEVVVILEGMVEATGMTCQARSSYMDTEVLWGHRFTPVLTLEKGFYEVDYNTFHDTYETNTPSCCAKELAEMKREGRLLQYLPSPPLLGGCAEAGLDAEAEQNEEDEPKGLGGSREARGSV
binding: binds
